Reference: PMC12451111

Target: T1, Flag-tagged LHPP (phospholysine phosphohistidine inorganic pyrophosphate phosphatase) (human) (UniProt Q9H008)
T1 sequence: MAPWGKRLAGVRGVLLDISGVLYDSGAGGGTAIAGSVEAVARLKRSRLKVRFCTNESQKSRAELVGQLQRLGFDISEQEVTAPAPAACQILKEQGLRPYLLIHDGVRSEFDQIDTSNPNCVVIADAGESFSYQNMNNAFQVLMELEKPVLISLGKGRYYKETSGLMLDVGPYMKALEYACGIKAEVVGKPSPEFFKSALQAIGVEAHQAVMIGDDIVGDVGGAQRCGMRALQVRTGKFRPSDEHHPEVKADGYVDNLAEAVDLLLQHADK
Test: affinity purification with mass spectrometry; immunoprecipitation with Flag-LHPP as bait protein in UM Mum2b cells, then mass spectrometry

binding: binds
B1: mitochondrial aconitate hydratase 2 (aconitase 2, ACO2) (enzyme, UniProt Q99798 28-780)
chain: QRAKVAMSHFEPNEYIHYDLLEKNINIVRKRLNRPLTLSEKIVYGHLDDPASQEIERGKSYLRLRPDRVAMQDATAQMAMLQFISSGLSKVAVPSTIHCDHLIEAQVGGEKDLRRAKDINQEVYNFLATAGAKYGVGFWKPGSGIIHQIILENYAYPGVLLIGTDSHTPNGGGLGGICIGVGGADAVDVMAGIPWELKCPKVIGVKLTGSLSGWSSPKDVILKVAGILTVKGGTGAIVEYHGPGVDSISCTGMATICNMGAEIGATTSVFPYNHRMKKYLSKTGREDIANLADEFKDHLVPDPGCHYDQLIEINLSELKPHINGPFTPDLAHPVAEVGKVAEKEGWPLDIRVGLIGSCTNSSYEDMGRSAAVAKQALAHGLKCKSQFTITPGSEQIRATIERDGYAQILRDLGGIVLANACGPCIGQWDRKDIKKGEKNTIVTSYNRNFTGRNDANPETHAFVTSPEIVTALAIAGTLKFNPETDYLTGTDGKKFRLEAPDADELPKGEFDPGQDTYQHPPKDSSGQHVDVSPTSQRLQLLEPFDKWDGKDLEDLQILIKVKGKCTTDHISAAGPWLKFRGHLDNISNNLLIGAINIENGKANSVRNAVTQEFGPVPDTARYYKKHGIRWVVIGDENYGEGSSREHAALEPRHLGGRAIITKSFARIHETNLKKQGLLPLTFADPADYNKIHPVDKLTIQGLKDFTPGKPLKCIIKHPNGTQETILLNHTFNETQIEWFRAGSALNRMKELQQ

No constants are given. Whether binding was seen depends on the method and setting. Binding seen in cells or lysates may run through a third protein. Here binding means that the protein was enriched with, or labelled near, the bait; the list need not be complete. Tags and fused reporters may be left off the sequences shown.
